Results are given in words; binding and its absence hold for the method and conditions named. Binding seen in cells or lysates may run through a third protein. These calls come from enrichment with a bait or labelling near it, and not all partners need be listed.
Target: T1, Membrane associated RING finger protein 5 (MARCH5) (human (in human OC cell lines)) (UniProt Q9NX47)
T1 sequence: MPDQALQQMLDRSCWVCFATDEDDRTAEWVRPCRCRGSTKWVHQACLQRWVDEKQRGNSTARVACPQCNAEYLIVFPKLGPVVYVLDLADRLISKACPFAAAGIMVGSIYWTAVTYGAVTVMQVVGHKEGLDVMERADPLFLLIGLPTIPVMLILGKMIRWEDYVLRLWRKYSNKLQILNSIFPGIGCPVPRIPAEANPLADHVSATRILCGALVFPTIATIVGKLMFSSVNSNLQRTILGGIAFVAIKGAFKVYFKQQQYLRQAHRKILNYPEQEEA
Assay: affinity purification with mass spectrometry; co-immunoprecipitation of MARCH5 from OC cells followed by mass spectrometry (IP-MS); conditions not given

B1: mitochondrial pyruvate carrier 1 (MPC1) (protein, UniProt Q9Y5U8 1-109)
chain: MAGALVRKAADYVRSKDFRDYLMSTHFWGPVANWGLPIAAINDMKKSPEIISGRMTFALCCYSLTFMRFAYKVQPRNWLLFACHATNEVAQLIQGGRLIKHEMTKTASA
B1 was tested. Which binding did it give?
The binding was “binds”.

Source: paper PMC11263418
